# Data taken from the supplement of paper PMC10735217.
# The list shows a part of the results. Single values are uncertain here, since repeats match poorly.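 The human kidney-derived cells carry a stably integrated construct of eight TEAD-binding elements driving luciferase, read by luminescence in a drug-repurposing library screen. A compound counts as a hit when its signal is more than five robust Z scores above the plate mean.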
# Tested on: HEK293A TEAD-LUC reporter
# Assay: TEAD-luciferase reporter activity (YAP activation), robust Z score vs plate; higher = stronger YAP/TEAD activation
# Details: 24 h
SMILES,TEAD-luciferase reporter activity (compound concentration: 200 nM),TEAD-luciferase reporter activity (compound concentration: 2 uM),TEAD-luciferase reporter activity (compound concentration: 10 uM)
COc1ccc2cc(OCC3(C(=O)O)CN(C(=O)c4ccc(F)cc4)C3)ccc2c1,inactive: -0.66,inactive: -0.735,inactive: 1.63
N#Cc1c(N)[nH]c2ccc(Sc3ccccc3)cc12 [amphethinile],inactive: -0.391,inactive: 1.69,inactive: -1.25
Cc1cccc(C(O)CNC(=O)C2CCN(C(=O)Cn3c(=O)sc4ccc(Cl)cc43)CC2)n1 (stereo not drawn),inactive: -1.42,inactive: 1.09,inactive: -1.65
Cc1ccc(-c2ncccn2)c(C(=O)N2C[C@H](COc3ccc(F)cn3)CC[C@H]2C)c1 [Filorexant],inactive: -0.994,active: 6.51,inactive: 1.59
COc1ccc(S(=O)(=O)N(CC(C)C)CC(O)[C@H](Cc2ccc(CNCCP(=O)(O)O)cc2)NC(=O)O[C@H]2CO[C@H]3OCC[C@H]32)cc1 (stereo partly drawn),inactive: 0.0902,inactive: -1.23,inactive: 1.35
CN(C)C(=O)c1cccc(COc2ccc(N3C(N)=NC(N)=NC3(C)C)cc2Cl)c1,inactive: 1.9,–,inactive: -1.72
CN(C)C(=O)c1cccc(COc2ccc(N3C(N)=NC(N)=NC3(C)C)cc2Cl)c1 [Triazinate],–,inactive: -0.628,–
COc1ccc(CCN(C)CCCC(C#N)(c2cc(OC)c(OC)c(OC)c2)C(C)C)cc1OC (stereo not drawn) [gallopamil],inactive: 0.984,inactive: -1.17,inactive: -1.62
Cc1c(Cl)cccc1S(=O)(=O)N1CCC[C@H](C(=O)NC2CCCCC2)C1,inactive: -1.65,inactive: -1.68,inactive: -0.599
O=C(Oc1ccccc1)c1ccc2ccccc2c1O,inactive: 2.16,inactive: -0.911,inactive: 2.86
CCC[C@@H]1O[C@@H]2C[C@H]3[C@@H]4C[C@H](F)C5=CC(=O)CC[C@]5(C)[C@@]4(F)[C@@H](O)C[C@]3(C)[C@]2(SC)O1,inactive: -0.336,inactive: 0.815,inactive: 0.972
CO/N=C(\C(=O)N[C@@H]1C(=O)N2C(C(=O)O)=C(Cn3nnc(C)n3)CS[C@H]12)c1csc(N)n1 [Cefteram pivoxil],inactive: 0.461,inactive: 0.0106,inactive: 0.441
Cc1cccc(Nc2cc(Cl)nc(SCC(=O)NCCO)n2)c1C [pirinixil],inactive: -1.44,inactive: -0.924,inactive: 0.447
O=C1CC2CCCC(C1)N2C(=O)c1ccc2c(c1)OCO2,inactive: 0.214,–,inactive: -0.924
"CC(=O)OCC(=O)[C@@]1(O)[C@H](OC(C)=O)C[C@H]2[C@@H]3CCC4=CC(=O)C=C[C@]4(C)[C@@]3(F)[C@@H](O)C[C@@]21C [triamcinolone acetate, Foamix]",inactive: 1.47,–,inactive: 3.5
CC(=O)OCC(=O)[C@@]1(O)[C@H](OC(C)=O)C[C@H]2[C@@H]3CCC4=CC(=O)C=C[C@]4(C)[C@@]3(F)[C@@H](O)C[C@@]21C [triamcinolone acetate],–,inactive: -0.327,–
CC(CN(C)C)CN1c2ccccc2Sc2ccc(C#N)cc21 (stereo not drawn) [Cyamemazine],inactive: -3.27,inactive: -0.532,inactive: -0.375
CC(C)C1O[C@@H]2C[NH2+][Pt-2]3([NH2+]C[C@H]2O1)[O]C(=O)CC(=O)[O]3 [Eptaplatin],inactive: -0.908,inactive: -0.866,inactive: -1.72

SMILES,TEAD-luciferase reporter activity (compound concentration: 200 nM),TEAD-luciferase reporter activity (compound concentration: 2 uM),TEAD-luciferase reporter activity (compound concentration: 10 uM)
Cc1ccc(C(=O)c2cccn2C/C=C/c2cccc(OCC(=O)O)c2)cc1,inactive: -2.38,inactive: -0.854,inactive: 0.879
C=CC1=C(C)C2=NC1=Cc1c(C)c(CCC(=O)O)c3[n]1[Fe]([Cl])[n]1c(c(C)c(C=C)c1=C2)=CC1=NC(=C3)C(CCC(=O)O)=C1C [Hemin],inactive: 0.701,inactive: -0.335,inactive: 1.67
Cc1nccn1CCC(C(N)=O)(c1ccccc1)c1ccccc1 [imidafenacin],inactive: -1.68,inactive: 0.454,inactive: -1.27
NC(=S)N/N=C/c1ccncc1 [2016-03-02: Perchlozone],inactive: -1.33,–,active: 6.05
NC(=S)N/N=C/c1ccncc1 [_:_2016-03-02: Perchlozone],–,inactive: -0.467,–
CN1CCC(n2[nH]c(-c3ccccc3)c(Cc3ccccc3)c2=O)CC1 [Benzpiperilone],inactive: 1.73,–,inactive: 1.92
CN1CCC(n2[nH]c(-c3ccccc3)c(Cc3ccccc3)c2=O)CC1,–,inactive: -2.2,–
COc1cccc(C(O)CN2CCN(c3ccccc3OC)CC2)c1 (stereo not drawn),inactive: -1.43,inactive: -1.89,inactive: 1.13
Cc1ccc(C#Cc2ccc(S(=O)(=O)N[C@H](Cc3c[nH]c4ccccc34)C(=O)O)s2)cc1,inactive: 0.173,inactive: 0.0308,inactive: 0.947
O=C(O)c1ccc(CN(Cc2cccc(F)c2)c2ccc(OCc3ccc4ccccc4n3)cc2)cc1,inactive: -1.53,inactive: 0.0779,inactive: 3.27
COc1cc(CNC(=O)CCCC/C=C\C(C)C)ccc1O [zucapsaicin],inactive: 0.332,–,inactive: 0.474
COc1cc(CNC(=O)CCCC/C=C\C(C)C)ccc1O [civamide],–,inactive: -1.25,–
C=CCNC(=O)N1CC(Oc2ccc(Cl)cc2)C1,inactive: -1.36,inactive: -0.248,inactive: -0.878
CCCCCCCCCCCCCCCC[N+](C)(C)C1CCCCC1O (stereo not drawn),inactive: -0.252,inactive: -1.43,inactive: 1.26
CCCC1(CC(=O)O)OCCc2c1[nH]c1ccccc21 (stereo not drawn) [prodolic acid],inactive: -0.363,inactive: -0.029,inactive: 1.86
O=CN(O)CCCP(=O)([O-])O [fosmidomycin],inactive: -0.961,inactive: -0.0393,inactive: -0.391
COc1ccc(N2CCN(c3cccc(C)c3)CC2)nn1,inactive: 2.53,–,inactive: 1.04

# Record cards, as listed above:
# CC(CN(C)C)CN1c2ccccc2Sc2ccc(C#N)cc21 (stereo not drawn) [Cyamemazine] as listed: TEAD-luciferase reporter activity (compound concentration: 200 nM): inactive: -3.27; TEAD-luciferase reporter activity (compound concentration: 2 uM): inactive: -0.532; TEAD-luciferase reporter activity (compound concentration: 10 uM): inactive: -0.375
# O=C(Oc1ccccc1)c1ccc2ccccc2c1O as listed: TEAD-luciferase reporter activity (compound concentration: 200 nM): inactive: 2.16; TEAD-luciferase reporter activity (compound concentration: 2 uM): inactive: -0.911; TEAD-luciferase reporter activity (compound concentration: 10 uM): inactive: 2.86
